The target of assay [1] is SOX9 (endogenous) (human (endogenous in SKOV3, UWB1.289)) (UniProt P48436). Description: co-IP; endogenous proteins; 800 ug cell extract with 5 uL primary antibody or normal IgG overnight, protein A/G magnetic beads 2 h at 4 °C; SKOV3, UWB1.289 and SKOV3/Ola cells, with or without olaparib treatment.
In assay [2] the target is USP28 (endogenous) (human (endogenous in SKOV3, UWB1.289)) (UniProt Q96RU2). Described as above.
Assay [3] addresses F-box and WD repeat domain-containing 7 (FBXW7), endogenous (human (endogenous in SKOV3)) (UniProt Q969H0). The description is as above.
Assay [4] has as its target USP25 (endogenous) (UniProt Q9UHP3). Described as above.
The target in assay [5] is HA-USP28 (full-length, pcDNA3.1) (human) (UniProt Q96RU2). Description: co-IP; HEK293T co-transfected with full-length or truncated HA-USP28 and Flag-SOX9; IP with anti-HA beads, co-eluted SOX9 detected with anti-Flag antibody.

The chains behind the UniProt entries cited, without tags or fusion partners.
UniProt P48436: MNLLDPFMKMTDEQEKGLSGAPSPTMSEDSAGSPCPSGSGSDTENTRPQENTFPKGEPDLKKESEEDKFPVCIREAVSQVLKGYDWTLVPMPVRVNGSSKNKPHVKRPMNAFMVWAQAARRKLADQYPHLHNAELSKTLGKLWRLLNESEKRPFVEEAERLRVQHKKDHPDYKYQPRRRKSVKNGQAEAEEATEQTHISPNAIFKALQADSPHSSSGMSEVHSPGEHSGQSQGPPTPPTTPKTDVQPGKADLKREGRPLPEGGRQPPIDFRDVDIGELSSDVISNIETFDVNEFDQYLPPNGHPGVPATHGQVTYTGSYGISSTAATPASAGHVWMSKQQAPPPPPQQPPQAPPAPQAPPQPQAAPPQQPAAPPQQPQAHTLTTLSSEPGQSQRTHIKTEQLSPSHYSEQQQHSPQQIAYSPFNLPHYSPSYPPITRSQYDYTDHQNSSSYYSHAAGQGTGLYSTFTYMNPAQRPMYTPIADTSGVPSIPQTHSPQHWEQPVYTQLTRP
UniProt Q96RU2: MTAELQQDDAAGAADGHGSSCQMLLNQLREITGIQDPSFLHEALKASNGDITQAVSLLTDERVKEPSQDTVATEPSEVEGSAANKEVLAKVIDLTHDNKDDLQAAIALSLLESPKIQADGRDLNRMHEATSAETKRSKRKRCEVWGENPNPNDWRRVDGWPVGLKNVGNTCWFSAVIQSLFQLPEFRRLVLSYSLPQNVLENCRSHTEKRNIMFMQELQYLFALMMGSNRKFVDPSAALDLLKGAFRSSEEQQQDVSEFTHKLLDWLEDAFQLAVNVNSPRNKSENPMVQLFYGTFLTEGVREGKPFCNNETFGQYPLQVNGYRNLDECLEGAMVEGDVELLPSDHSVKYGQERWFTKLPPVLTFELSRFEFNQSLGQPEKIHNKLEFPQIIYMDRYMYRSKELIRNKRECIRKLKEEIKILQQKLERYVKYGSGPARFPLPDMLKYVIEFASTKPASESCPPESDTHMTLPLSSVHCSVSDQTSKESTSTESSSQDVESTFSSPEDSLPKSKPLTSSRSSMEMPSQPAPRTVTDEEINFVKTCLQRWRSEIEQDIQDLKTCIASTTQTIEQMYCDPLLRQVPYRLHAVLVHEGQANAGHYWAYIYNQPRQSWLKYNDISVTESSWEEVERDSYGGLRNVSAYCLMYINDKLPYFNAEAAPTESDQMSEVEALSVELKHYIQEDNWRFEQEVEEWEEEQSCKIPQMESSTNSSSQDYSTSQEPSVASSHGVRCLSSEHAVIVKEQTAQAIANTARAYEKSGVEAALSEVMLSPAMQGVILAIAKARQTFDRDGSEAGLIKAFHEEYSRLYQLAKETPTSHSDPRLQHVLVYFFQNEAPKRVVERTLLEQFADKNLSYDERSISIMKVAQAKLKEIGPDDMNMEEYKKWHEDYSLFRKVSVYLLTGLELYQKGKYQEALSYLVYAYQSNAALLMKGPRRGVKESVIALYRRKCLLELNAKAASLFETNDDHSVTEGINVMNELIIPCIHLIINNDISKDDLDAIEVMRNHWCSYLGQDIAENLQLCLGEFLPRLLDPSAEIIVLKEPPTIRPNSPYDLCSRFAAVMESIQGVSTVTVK
UniProt Q969H0: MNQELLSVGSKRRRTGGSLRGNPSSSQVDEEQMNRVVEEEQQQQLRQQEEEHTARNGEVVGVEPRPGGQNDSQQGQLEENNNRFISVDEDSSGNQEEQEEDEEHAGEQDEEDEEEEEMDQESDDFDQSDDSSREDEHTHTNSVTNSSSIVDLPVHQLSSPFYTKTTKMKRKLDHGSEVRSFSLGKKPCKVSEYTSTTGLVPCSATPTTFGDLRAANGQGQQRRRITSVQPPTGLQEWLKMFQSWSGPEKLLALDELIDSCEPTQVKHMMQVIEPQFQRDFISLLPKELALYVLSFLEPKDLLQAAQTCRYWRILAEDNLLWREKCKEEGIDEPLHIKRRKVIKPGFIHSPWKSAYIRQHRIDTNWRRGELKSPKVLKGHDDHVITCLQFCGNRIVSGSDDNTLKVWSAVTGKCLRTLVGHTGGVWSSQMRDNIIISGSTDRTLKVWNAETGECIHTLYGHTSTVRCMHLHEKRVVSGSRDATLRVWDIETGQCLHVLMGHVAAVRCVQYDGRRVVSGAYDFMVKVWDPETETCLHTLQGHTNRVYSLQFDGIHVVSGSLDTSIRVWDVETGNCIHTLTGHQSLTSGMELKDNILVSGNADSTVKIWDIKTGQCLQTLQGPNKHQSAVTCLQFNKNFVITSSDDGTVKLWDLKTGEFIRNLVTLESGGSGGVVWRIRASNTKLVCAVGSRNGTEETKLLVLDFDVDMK
UniProt Q9UHP3: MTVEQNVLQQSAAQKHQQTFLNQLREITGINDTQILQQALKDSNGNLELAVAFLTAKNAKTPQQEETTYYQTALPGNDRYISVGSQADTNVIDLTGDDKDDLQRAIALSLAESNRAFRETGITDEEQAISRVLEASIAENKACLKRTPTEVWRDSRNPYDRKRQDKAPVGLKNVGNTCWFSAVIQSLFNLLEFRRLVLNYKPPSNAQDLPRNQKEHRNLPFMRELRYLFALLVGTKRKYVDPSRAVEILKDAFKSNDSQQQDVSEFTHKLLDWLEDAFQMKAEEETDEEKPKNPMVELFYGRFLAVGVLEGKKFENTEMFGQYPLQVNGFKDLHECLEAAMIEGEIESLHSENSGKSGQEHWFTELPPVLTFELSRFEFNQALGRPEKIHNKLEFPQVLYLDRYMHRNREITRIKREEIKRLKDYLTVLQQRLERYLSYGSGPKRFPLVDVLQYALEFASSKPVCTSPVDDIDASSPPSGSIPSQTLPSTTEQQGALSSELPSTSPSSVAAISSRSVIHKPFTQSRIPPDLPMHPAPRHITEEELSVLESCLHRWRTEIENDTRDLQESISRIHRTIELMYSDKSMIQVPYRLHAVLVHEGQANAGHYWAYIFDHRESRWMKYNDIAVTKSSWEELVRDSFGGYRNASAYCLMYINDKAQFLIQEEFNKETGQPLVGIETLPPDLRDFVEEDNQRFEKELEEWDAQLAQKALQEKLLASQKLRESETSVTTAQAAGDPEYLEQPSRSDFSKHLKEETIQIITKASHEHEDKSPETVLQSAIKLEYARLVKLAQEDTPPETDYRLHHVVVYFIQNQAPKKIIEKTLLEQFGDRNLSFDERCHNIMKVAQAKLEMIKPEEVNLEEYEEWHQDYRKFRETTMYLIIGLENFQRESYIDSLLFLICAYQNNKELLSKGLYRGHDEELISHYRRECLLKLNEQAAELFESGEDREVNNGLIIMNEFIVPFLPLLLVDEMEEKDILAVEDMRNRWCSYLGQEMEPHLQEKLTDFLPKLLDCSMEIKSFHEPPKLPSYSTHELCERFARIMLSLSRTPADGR

Results are given in words; binding and its absence hold for the method and conditions named. In cells and extracts the contact can be indirect. Some results given as binding are weak or reduced against the parent protein; the word gives no strength.

“USP25 (endogenous) (from UniProt Q9UHP3 1-1055) (enzyme)”: the binding entry in assay [1] is “no binding”.
“SOX9 (endogenous) (from UniProt P48436 1-509)”: the binding result in assay [2] is “binds”; in assay [3], “binds”; in assay [4], “no binding”.
Regarding “Flag-SOX9 (full-length, pcDNA3.1) (from UniProt P48436 1-509)”, the binding result in assay [5] was “binds”.

These data come from PMC12003857.
